Measurements taken from patent publication US20010025045A1, “Substituted isoquinoline derivatives and their use as anticonvulsants” (SmithKline Beecham p.l.c., priority 1997, published 2001).
Some of these results come from one statement about several compounds together.

Target: novel receptor obtainable from rat forebrain tissue
Test: Radioligand binding assay with [3H]-Compound A
Settings: competition with [3H]-Compound A (usually 20nM)

`CN1CCc2ccc(NC(=O)c3ccc(CO)cc3)cc2C1` [Example 60, N-(2-Methyl-l,3,4-tetrahydroisoquinolin-7-yl)-4-hydroxymethylbenzamide] was tested, and the pKi was “greater than 7”.
